2 molecules from doi:10.1101/203539 can be followed below.

In this experiment the target is T1, biotagged Csde1 (cold shock domain protein e1) (UniProt Q91W50).
T1 sequence (chain, biotin on the biotag (biotin ligase BirA coexpressed)): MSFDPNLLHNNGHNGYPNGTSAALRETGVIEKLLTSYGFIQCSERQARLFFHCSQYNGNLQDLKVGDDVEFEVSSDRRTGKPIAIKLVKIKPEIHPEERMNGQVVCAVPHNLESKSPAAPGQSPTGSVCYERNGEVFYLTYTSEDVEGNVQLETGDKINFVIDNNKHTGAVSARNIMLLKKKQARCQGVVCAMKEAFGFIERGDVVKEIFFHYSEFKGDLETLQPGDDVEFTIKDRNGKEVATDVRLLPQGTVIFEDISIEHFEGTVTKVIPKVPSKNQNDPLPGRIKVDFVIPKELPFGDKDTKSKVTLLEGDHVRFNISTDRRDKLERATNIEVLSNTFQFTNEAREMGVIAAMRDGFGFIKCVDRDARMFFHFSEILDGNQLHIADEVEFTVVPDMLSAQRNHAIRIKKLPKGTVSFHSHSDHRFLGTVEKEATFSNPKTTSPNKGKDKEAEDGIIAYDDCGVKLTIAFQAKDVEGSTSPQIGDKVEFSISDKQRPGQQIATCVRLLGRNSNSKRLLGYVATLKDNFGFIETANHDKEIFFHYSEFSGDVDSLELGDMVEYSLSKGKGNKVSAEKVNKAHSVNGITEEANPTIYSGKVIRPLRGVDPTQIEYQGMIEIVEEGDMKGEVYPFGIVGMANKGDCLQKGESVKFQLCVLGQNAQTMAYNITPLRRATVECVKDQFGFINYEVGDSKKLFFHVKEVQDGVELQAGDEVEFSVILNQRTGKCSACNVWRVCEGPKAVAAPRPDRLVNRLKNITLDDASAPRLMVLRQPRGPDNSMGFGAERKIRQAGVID
Description: affinity purification with mass spectrometry.

Results are given in words; binding and its absence hold for the method and conditions named. Binding seen in cells or lysates may run through a third protein. A yes stands for co-enrichment or nearness to the bait. Other partners may have been found. A no says only that the protein was not detected with the bait. Where a sequence is shown, tags or fusion partners need not be part of it.

B1: 4E-T (eIF4E Transporter) (protein, UniProt Q9EST3 1-983)
chain: MEKSVAETENGDAFLELKKLPTSKSPHRYTKEELLDIKERPYSKQRPSCLSEKYDSDGVWDPEKWHASLYPASGRSSPVESLKKESESDRPSLVRRIADPRERVKEDDLDVVLSPQRRSFGGGCHVTAAVSSRRSGSPLEKDSDGLRLLGGRRIGSGRIISARAFEKDHRLSDKDLRDLRDRDRERDYKDKRFRREFGDSKRVFGERRRNDSYTEEEPEWFSAGPTSQSETIELTGFDDKILEEDHKGRKRTRRRTASVKEGIVECNGGVAEEDEVEVILAQEPSADQEVPRDVILPEQSPGEFDFNEFFNLDKVPCLASMIEDVLGEGSVSASRFSRWFSNPSRSGSRSSSLGSTPHEELERLAGLEQAVLSPGQNSGNYFAPIPSEDHAENKVDILEMLQKAKVDLKPLLSSLSANKEKLKESSHSGVVLSVEEVEAGLKGLKVDQQMKNSTPFMAEHLEETLSAASSNRQLKKDGDMTAFNKLVNTMKASGTLPTQPKVSRNVESHLLAPAEIPGQPVSKNILQELLGQPVQRPASSNLLSGLMGSLEATASLLSQRAPSPPMSQVFRTQAASADYLHPRIPSPIGFPSGPQQLLGDPFQGMRKPMSPVSAQMSQLELQQAALEGLALPHDLAVQTAPFYQPGFSKPQVDRTRDGLRNRQQRMSKSPAPMHGGNSSSPAPAASITSMLSPSFTPTSVIRKMYESREKTKEEMAPGMVVPGDGKEDTQKTSEENLLSSNPIPNTDQDSSTTNPKLSTLQRSSCSTPLSQTSRYTKEQDYRPKTAGRKTPTLASPVPGTPFLRPTHQVPLVPHVPIVRPAHQLHPGLVQRLIAQGVHPQHLPSLLQAGVLPPGIDMAPLQGLSGPLLGQPLYPLVSAASHPLLNPRPGTPLHLAVMQQQLQRSVLHPPGSSSQAAAISVQTPQNVPSRSGMPHMHSQLEHRTSQRSSSPVGLAKWFGSDVLQQPLPSMPTKVISVDELEYRQ
In the case of B1, the binding result is given as “no binding”.

B2: Strap (serine-threonine receptor associated-protein) (protein, UniProt Q9Z1Z2 1-350)
chain: MAMRQTPLTCSGHTRPVVDLAFSGITPYGYFLISACKDGKPMLRQGDTGDWIGTFLGHKGAVWGATLNKDATKAATAAADFTAKVWDAVSGDELMTLAHKHIVKTVDFTQDSNYLLTGGQDKLLRIYDLNKPEAEPKEISGHTSGIKKALWCSDDKQILSADDKTVRLWDHATMTEVKSLNFNMSVSSMEYIPEGEILVITYGRSIAFHSAVSLEPIKSFEAPATINSASLHPEKEFLVAGGEDFKLYKYDYNSGEELESYKGHFGPIHCVRFSPDGELYASGSEDGTLRLWQTVVGKTYGLWKCVLPEEDSGELAKPKIGFPETAEEELEEIASENSDSIYSSTPEVKA
With B2, the binding result is recorded as “binds”.
